# Reference: PMC7819943, “Rice protein-binding microarrays: a tool to detect cis-acting elements near promoter regions in rice”
# The chains behind the UniProt entries cited, without tags or fusion partners.
# UniProt Q0JBA9, entry or part of it: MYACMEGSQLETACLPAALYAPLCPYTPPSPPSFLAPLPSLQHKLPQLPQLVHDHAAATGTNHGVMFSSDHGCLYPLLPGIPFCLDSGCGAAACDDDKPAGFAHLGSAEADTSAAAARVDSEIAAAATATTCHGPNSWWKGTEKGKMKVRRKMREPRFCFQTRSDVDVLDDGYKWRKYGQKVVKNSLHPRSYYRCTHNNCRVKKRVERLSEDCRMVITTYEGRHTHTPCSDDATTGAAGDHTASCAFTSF
# This is one part of the list.
# Target: OsWRKY34 (Oryza sativa, UniProt Q0JBA9 1-250)
# Assay: protein-binding microarray (RPBM); PBS, 2% BSA, 51.3 ng/ul salmon testes DNA, 50 uM zinc acetate, 200 nM TF, 25 C, 1 h; high values mean tight binding
# Details: protein: recombinant; tags: N-terminal polyhistidine and DsRed monomer fusion (pET32a); label: CyDye5-dUTP incorporated in the synthesized complementary strand; 3' TTTTT single-stranded linker to array surface; dsDNA, one strand shown
# Summary of the method: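 The binding signal is fluorescence intensity per feature, in arbitrary units, read on an Axon 4000B scanner. Polyhistidine- and DsRed-tagged transcription factors (N-terminal fusions) from E. coli BL21-CodonPlus were purified on Ni–NTA and applied at 200 nM for 1 h at 25 °C to a double-stranded, BSA-blocked custom Agilent array in buffer with 50 µM zinc acetate.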
row,Sequence,binding signal
1,GAGTACTCGTCCGGGGTTTTTAACTTTTTGCCACTTTTAACGGAGTCACCTAGTGCAG,9100 fluorescence intensity (a.u.)
2,GGCTTCTTTTCTCTCCAATCTCTCTCTCTCTCTCTCTCTTCGGAGTCACCTAGTGCAG,8940 fluorescence intensity (a.u.)
3,TAACTGGCTGTACATTTTTTTCCCATGTGTCACTGACATGCGGAGTCACCTAGTGCAG,8610 fluorescence intensity (a.u.)
4,AAACACTGCATCGCCACCGGCATCCATCCTCACCAAGATACGGAGTCACCTAGTGCAG,10700 fluorescence intensity (a.u.)
5,ATTATTTTTGTTTGACTGTTTAAAAATGACGACGAACAGACGGAGTCACCTAGTGCAG,8350 fluorescence intensity (a.u.)
6,CGCTGCCCACCTCCTTTCCTTTTTCCGCTGCCAGCCGACTCGGAGTCACCTAGTGCAG,9910 fluorescence intensity (a.u.)
7,CTGGCTTGCAACTACTACCCGTTAAGACCACGCGCGCCTCCGGAGTCACCTAGTGCAG,8230 fluorescence intensity (a.u.)
8,TTCCTAGTACTATCTGCGTTGCGTTGACTGACATGTGGGCCGGAGTCACCTAGTGCAG,17000 fluorescence intensity (a.u.)
9,AGGGTGGTAAAATAAACTTATTCCTGCTAGGCTAGGGAAACGGAGTCACCTAGTGCAG,9460 fluorescence intensity (a.u.)
10,CACTCCCGCAATCCCGCTGCTCGTGCCGCATACTCTCGCCCGGAGTCACCTAGTGCAG,13300 fluorescence intensity (a.u.)
11,AGTATGGGCCGGGTCACAATTGTCAAAGCTTTACAACGCACGGAGTCACCTAGTGCAG,9510 fluorescence intensity (a.u.)
12,TCTTGCGAGCTACGTTTTGGTTGGTGGTGTAGCGTGAGAACGGAGTCACCTAGTGCAG,11200 fluorescence intensity (a.u.)
13,GGAGGAGAGAGAGGAAGAGAGATGGTGAGGGGAGGGAGGACGGAGTCACCTAGTGCAG,10000 fluorescence intensity (a.u.)
14,TTGCCCAAGAGCTGACCCAACTCATTAAAATTACGCTTCTCGGAGTCACCTAGTGCAG,8270 fluorescence intensity (a.u.)
15,GGGAGGTTGTGCTTGGGTTGGTCGGGCGGTCGCTACTATGCGGAGTCACCTAGTGCAG,10600 fluorescence intensity (a.u.)
16,ATGGTCTTATTAATCACTTCTTATTTAAATTTCTCCCTATCGGAGTCACCTAGTGCAG,9800 fluorescence intensity (a.u.)
17,TTTTGCCCTTTTTCTCTCGCCAGCTCGGACCCGTCGTGACCGGAGTCACCTAGTGCAG,8730 fluorescence intensity (a.u.)
18,CGTGAACTTTCGATGCTTTAAAATCATTTTTGCCTTAAACCGGAGTCACCTAGTGCAG,8170 fluorescence intensity (a.u.)
19,GCCAGCAAGCCAAGCCCACCCAATCACCCCAACCGCCTCACGGAGTCACCTAGTGCAG,8220 fluorescence intensity (a.u.)
20,GACTCCACCAAGAACACAACTGCTGACGATTTGACGACTCCGGAGTCACCTAGTGCAG,8220 fluorescence intensity (a.u.)
21,ACGCTCTCCACCCGTCTCGCTCTCACCTCTCACTTCGACTCGGAGTCACCTAGTGCAG,11500 fluorescence intensity (a.u.)
22,GCTTGGCTTCGCAATCCCATGCATCGCCATGGCCGTTTCTCGGAGTCACCTAGTGCAG,8080 fluorescence intensity (a.u.)
23,TTGCTTTTCCTTTGTAGCTTCCCTTGCACTTATCATACTTCGGAGTCACCTAGTGCAG,10200 fluorescence intensity (a.u.)
24,CATATATCCAAACCCTAGCCATCCATTCTTCACCTTCTCTCGGAGTCACCTAGTGCAG,8240 fluorescence intensity (a.u.)
25,GCGGTATCACTCACACGGTCACACCATGTTTCCACATTGCCGGAGTCACCTAGTGCAG,8060 fluorescence intensity (a.u.)
26,GGCCCAATTTCCCCTTCCGTTGACGTTGCAAGATTTTTATCGGAGTCACCTAGTGCAG,11000 fluorescence intensity (a.u.)
27,GCACCCCGCCGCCGTGGCCACCTCCGCCCACACCGTCGTCCGGAGTCACCTAGTGCAG,8070 fluorescence intensity (a.u.)

row,Sequence,binding signal
1,AGCCTGGGTGCCTCTGATTTGTTGTCTTGTAGTGTAACTGCGGAGTCACCTAGTGCAG,8500 fluorescence intensity (a.u.)
2,ATCAACTGATCCTGACTCCGTTACCACCCGGCATATTGTTCGGAGTCACCTAGTGCAG,13700 fluorescence intensity (a.u.)
3,TTCTATCTCTCTCAGGCTAACTAATTTCATAAGCACACATCGGAGTCACCTAGTGCAG,9150 fluorescence intensity (a.u.)
4,AACCACATCATCTATATCCCGTTAGTATAGGTTGCTCATACGGAGTCACCTAGTGCAG,9040 fluorescence intensity (a.u.)
5,CCTAATTATTTTTCCAATTCTTTTAAGTCCTTTGCTTAAACGGAGTCACCTAGTGCAG,8520 fluorescence intensity (a.u.)
6,TTAGGGCCACGGATTAGATTTCGATCACTTTTGAGGGTCACGGAGTCACCTAGTGCAG,8440 fluorescence intensity (a.u.)
7,AGAGATTACTTGCGCTTCGATTTGATTTTAGGTCAATGCTCGGAGTCACCTAGTGCAG,8730 fluorescence intensity (a.u.)
8,TTTGTGTGTCTTGTTTATATGTGCACATATCTTGTCTTGTCGGAGTCACCTAGTGCAG,8370 fluorescence intensity (a.u.)
9,TGGAAGTCTGGAAGGCGCTGTACCTTCGTCTCGCCCGTCACGGAGTCACCTAGTGCAG,8650 fluorescence intensity (a.u.)
10,CACACATAAACTTTTAACTTTTTTATCACATCGTTTTAATCGGAGTCACCTAGTGCAG,8490 fluorescence intensity (a.u.)
11,CCCGCTTCTTCCCCGCTGCTTGAATCAGTCGTATCCTCACCGGAGTCACCTAGTGCAG,11400 fluorescence intensity (a.u.)
12,CCGGAGACGACGATTGCTTTCCAGATGGGCTCAATTCCACCGGAGTCACCTAGTGCAG,8700 fluorescence intensity (a.u.)
13,GGAGAGGATGTCCCAGTTCCCACTATGGCTTGGTTACTGACGGAGTCACCTAGTGCAG,9010 fluorescence intensity (a.u.)
14,ACCTCCACTCCCCGCCGAATTATGCCCGGATCTTGCCGCCCGGAGTCACCTAGTGCAG,10900 fluorescence intensity (a.u.)
15,GTGCTGTAATCTCCGCTCTTTGCTCGCTGACTTGCATTATCGGAGTCACCTAGTGCAG,11000 fluorescence intensity (a.u.)
16,ACTTCTGTTCGCTCCATTGCATGTGCCTCCATCACAAGGCCGGAGTCACCTAGTGCAG,8430 fluorescence intensity (a.u.)
17,CGATCTCGGTTGTGCTGAGAGCTTAGCGTTGACTTCGATGCGGAGTCACCTAGTGCAG,14200 fluorescence intensity (a.u.)
18,GATAATTTCTTCATCTTTTTACTTATCTCCTCGCTAATTCCGGAGTCACCTAGTGCAG,10700 fluorescence intensity (a.u.)
19,GTCGTCTCAGTAGCCGAGTAAAGCAACCGTACGCTTCGACCGGAGTCACCTAGTGCAG,8040 fluorescence intensity (a.u.)
20,GGGTGGGGAGGTGGTGGTCGTCGGGCAGGTGGGGAGGATGCGGAGTCACCTAGTGCAG,23900 fluorescence intensity (a.u.)
21,GCGAATCCCTCTTGTTTATCCAACTTTTGTCAACGTTATGCGGAGTCACCTAGTGCAG,8410 fluorescence intensity (a.u.)
22,ACCTGACACCCAGCACAAGCTGTACCACATCCTTCTTCCACGGAGTCACCTAGTGCAG,9460 fluorescence intensity (a.u.)
23,CCTTATAACTTCCAACTGACAATTGTTTAACTCATTATGGCGGAGTCACCTAGTGCAG,8400 fluorescence intensity (a.u.)
24,CGTGAGCCATCCCCGAGCCGAGCTCTCTCTCTCTCGCTCTCGGAGTCACCTAGTGCAG,8720 fluorescence intensity (a.u.)
25,ATCGGATTCTGTTGTTACATTTATTGATTGATTGAATCAGCGGAGTCACCTAGTGCAG,8270 fluorescence intensity (a.u.)
26,TCAACTCCATCTGGTCATCAATCACTCTACCTTCATCTTCCGGAGTCACCTAGTGCAG,9080 fluorescence intensity (a.u.)
27,TGCGCGACACCATTGTTCTCCGAGATTCTCAAGGTCCCTTCGGAGTCACCTAGTGCAG,11000 fluorescence intensity (a.u.)

# Not a retest: an excerpt of the list.
row,Sequence,binding signal
1,GAGTACTCGTCCGGGGTTTTTAACTTTTTGCCACTTTTAACGGAGTCACCTAGTGCAG,9100 fluorescence intensity (a.u.)
2,GGCTTCTTTTCTCTCCAATCTCTCTCTCTCTCTCTCTCTTCGGAGTCACCTAGTGCAG,8940 fluorescence intensity (a.u.)
3,TAACTGGCTGTACATTTTTTTCCCATGTGTCACTGACATGCGGAGTCACCTAGTGCAG,8610 fluorescence intensity (a.u.)
4,AAACACTGCATCGCCACCGGCATCCATCCTCACCAAGATACGGAGTCACCTAGTGCAG,10700 fluorescence intensity (a.u.)
5,ATTATTTTTGTTTGACTGTTTAAAAATGACGACGAACAGACGGAGTCACCTAGTGCAG,8350 fluorescence intensity (a.u.)
6,CGCTGCCCACCTCCTTTCCTTTTTCCGCTGCCAGCCGACTCGGAGTCACCTAGTGCAG,9910 fluorescence intensity (a.u.)
7,CTGGCTTGCAACTACTACCCGTTAAGACCACGCGCGCCTCCGGAGTCACCTAGTGCAG,8230 fluorescence intensity (a.u.)
8,TTCCTAGTACTATCTGCGTTGCGTTGACTGACATGTGGGCCGGAGTCACCTAGTGCAG,17000 fluorescence intensity (a.u.)
9,AGGGTGGTAAAATAAACTTATTCCTGCTAGGCTAGGGAAACGGAGTCACCTAGTGCAG,9460 fluorescence intensity (a.u.)
10,CACTCCCGCAATCCCGCTGCTCGTGCCGCATACTCTCGCCCGGAGTCACCTAGTGCAG,13300 fluorescence intensity (a.u.)
11,AGTATGGGCCGGGTCACAATTGTCAAAGCTTTACAACGCACGGAGTCACCTAGTGCAG,9510 fluorescence intensity (a.u.)
12,TCTTGCGAGCTACGTTTTGGTTGGTGGTGTAGCGTGAGAACGGAGTCACCTAGTGCAG,11200 fluorescence intensity (a.u.)
